According to patent US9284543B2, “Neutral active soluble truncated PH20 polypeptides and uses thereof” (Halozyme, Inc., priority 2008, dated 2016):

B1: SPAM1-EEPQ: C-terminally truncated human PH20, precursor 479 aa (SEQ ID NO:21), mature 444 aa (SEQ ID NO:73) (protein, listed as Homo sapiens)
chain 1: MGVLKFKHIFFRSFVKSSGVSQIVFTFLLIPCCLTLNFRAPPVIPNVPFLWAWNAPSEFCLGKFDEPLDMSLFSFIGSPRINATGQGVTIFYVDRLGYYPYIDSITGVTVNGGIPQKISLQDHLDKAKKDITFYMPVDNLGMAVIDWEEWRPTWARNWKPKDVYKNRSIELVQQQNVQLSLTEATEKAKQEFEKAGKDFLVETIKLGKLLRPNHLWGYYLFPDCYNHHYKKPGYNGSCFNVEIKRNDDLSWLWNESTALYPSIYLNTQQSPVAATLYVRNRVREAIRVSKIPDAKSPLPVFAYTRIVFTDQVLKFLSQDELVYTFGETVALGASGIVIWGTLSIMRSMKSCLLLDNYMETILNPYIINVTLAAKMCSQVLCQEQGVCIRKNWNSSDYLHLNPDNFAIQLEKGGKFTVRGKPTLEDLEQFSEKFYCSCYSTLSCKEKADVKDTDAVDVCIADGVCIDAFLKPPMETEEPQ
chain 2: MGVLKFKHIFFRSFVKSSGVSQIVFTFLLIPCCLTLNFRAPPVIPNVPFLWAWNAPSEFCLGKFDEPLDMSLFSFIGSPRINATGQGVTIFYVDRLGYYPYIDSITGVTVNGGIPQKISLQDHLDKAKKDITFYMPVDNLGMAVIDWEEWRPTWARNWKPKDVYKNRSIELVQQQNVQLSLTEATEKAKQEFEKAGKDFLVETIKLGKLLRPNHLWGYYLFPDCYNHHYKKPGYNGSCFNVEIKRNDDLSWLWNESTALYPSIYLNTQQSPVAATLYVRNRVREAIRVSKIPDAKSPLPVFAYTRIVFTDQVLKFLSQDELVYTFGETVALGASGIVIWGTLSIMRSMKSCLLLDNYMETILNPYIINVTLAAKMCSQVLCQEQGVCIRKNWNSSDYLHLNPDNFAIQLEKGGKFTVRGKPTLEDLEQFSEKFYCSCYSTLSCKEKADVKDTDAVDVCIADGVCIDAFLKPPMETEEPQ
modifications: HuPH20 precursor 1-479; Mature HuPH20 36-479
B2: SPAM1-METE: C-terminally truncated human PH20, precursor 476 aa (SEQ ID NO:24), mature 441 aa (SEQ ID NO:76) (protein, listed as Homo sapiens)
chain 1: MGVLKFKHIFFRSFVKSSGVSQIVFTFLLIPCCLTLNFRAPPVIPNVPFLWAWNAPSEFCLGKFDEPLDMSLFSFIGSPRINATGQGVTIFYVDRLGYYPYIDSITGVTVNGGIPQKISLQDHLDKAKKDITFYMPVDNLGMAVIDWEEWRPTWARNWKPKDVYKNRSIELVQQQNVQLSLTEATEKAKQEFEKAGKDFLVETIKLGKLLRPNHLWGYYLFPDCYNHHYKKPGYNGSCFNVEIKRNDDLSWLWNESTALYPSIYLNTQQSPVAATLYVRNRVREAIRVSKIPDAKSPLPVFAYTRIVFTDQVLKFLSQDELVYTFGETVALGASGIVIWGTLSIMRSMKSCLLLDNYMETILNPYIINVTLAAKMCSQVLCQEQGVCIRKNWNSSDYLHLNPDNFAIQLEKGGKFTVRGKPTLEDLEQFSEKFYCSCYSTLSCKEKADVKDTDAVDVCIADGVCIDAFLKPPMETE
chain 2: LNFRAPPVIPNVPFLWAWNAPSEFCLGKFDEPLDMSLFSFIGSPRINATGQGVTIFYVDRLGYYPYIDSITGVTVNGGIPQKISLQDHLDKAKKDITFYMPVDNLGMAVIDWEEWRPTWARNWKPKDVYKNRSIELVQQQNVQLSLTEATEKAKQEFEKAGKDFLVETIKLGKLLRPNHLWGYYLFPDCYNHHYKKPGYNGSCFNVEIKRNDDLSWLWNESTALYPSIYLNTQQSPVAATLYVRNRVREAIRVSKIPDAKSPLPVFAYTRIVFTDQVLKFLSQDELVYTFGETVALGASGIVIWGTLSIMRSMKSCLLLDNYMETILNPYIINVTLAAKMCSQVLCQEQGVCIRKNWNSSDYLHLNPDNFAIQLEKGGKFTVRGKPTLEDLEQFSEKFYCSCYSTLSCKEKADVKDTDAVDVCIADGVCIDAFLKPPMETE
modifications: HuPH20 precursor 1-476; Mature HuPH20 36-476
B3: SPAM1-ETEE: C-terminally truncated human PH20, precursor 477 aa (SEQ ID NO:23), mature 442 aa (SEQ ID NO:75) (protein, listed as Homo sapiens)
chain 1: MGVLKFKHIFFRSFVKSSGVSQIVFTFLLIPCCLTLNFRAPPVIPNVPFLWAWNAPSEFCLGKFDEPLDMSLFSFIGSPRINATGQGVTIFYVDRLGYYPYIDSITGVTVNGGIPQKISLQDHLDKAKKDITFYMPVDNLGMAVIDWEEWRPTWARNWKPKDVYKNRSIELVQQQNVQLSLTEATEKAKQEFEKAGKDFLVETIKLGKLLRPNHLWGYYLFPDCYNHHYKKPGYNGSCFNVEIKRNDDLSWLWNESTALYPSIYLNTQQSPVAATLYVRNRVREAIRVSKIPDAKSPLPVFAYTRIVFTDQVLKFLSQDELVYTFGETVALGASGIVIWGTLSIMRSMKSCLLLDNYMETILNPYIINVTLAAKMCSQVLCQEQGVCIRKNWNSSDYLHLNPDNFAIQLEKGGKFTVRGKPTLEDLEQFSEKFYCSCYSTLSCKEKADVKDTDAVDVCIADGVCIDAFLKPPMETEE
chain 2: LNFRAPPVIPNVPFLWAWNAPSEFCLGKFDEPLDMSLFSFIGSPRINATGQGVTIFYVDRLGYYPYIDSITGVTVNGGIPQKISLQDHLDKAKKDITFYMPVDNLGMAVIDWEEWRPTWARNWKPKDVYKNRSIELVQQQNVQLSLTEATEKAKQEFEKAGKDFLVETIKLGKLLRPNHLWGYYLFPDCYNHHYKKPGYNGSCFNVEIKRNDDLSWLWNESTALYPSIYLNTQQSPVAATLYVRNRVREAIRVSKIPDAKSPLPVFAYTRIVFTDQVLKFLSQDELVYTFGETVALGASGIVIWGTLSIMRSMKSCLLLDNYMETILNPYIINVTLAAKMCSQVLCQEQGVCIRKNWNSSDYLHLNPDNFAIQLEKGGKFTVRGKPTLEDLEQFSEKFYCSCYSTLSCKEKADVKDTDAVDVCIADGVCIDAFLKPPMETEE
modifications: HuPH20 precursor 1-477; Mature HuPH20 36-477
B4: SPAM1-TEEP: C-terminally truncated human PH20, precursor 478 aa (SEQ ID NO:22), mature 443 aa (SEQ ID NO:74) (protein, listed as Homo sapiens)
chain 1: MGVLKFKHIFFRSFVKSSGVSQIVFTFLLIPCCLTLNFRAPPVIPNVPFLWAWNAPSEFCLGKFDEPLDMSLFSFIGSPRINATGQGVTIFYVDRLGYYPYIDSITGVTVNGGIPQKISLQDHLDKAKKDITFYMPVDNLGMAVIDWEEWRPTWARNWKPKDVYKNRSIELVQQQNVQLSLTEATEKAKQEFEKAGKDFLVETIKLGKLLRPNHLWGYYLFPDCYNHHYKKPGYNGSCFNVEIKRNDDLSWLWNESTALYPSIYLNTQQSPVAATLYVRNRVREAIRVSKIPDAKSPLPVFAYTRIVFTDQVLKFLSQDELVYTFGETVALGASGIVIWGTLSIMRSMKSCLLLDNYMETILNPYIINVTLAAKMCSQVLCQEQGVCIRKNWNSSDYLHLNPDNFAIQLEKGGKFTVRGKPTLEDLEQFSEKFYCSCYSTLSCKEKADVKDTDAVDVCIADGVCIDAFLKPPMETEEP
chain 2: LNFRAPPVIPNVPFLWAWNAPSEFCLGKFDEPLDMSLFSFIGSPRINATGQGVTIFYVDRLGYYPYIDSITGVTVNGGIPQKISLQDHLDKAKKDITFYMPVDNLGMAVIDWEEWRPTWARNWKPKDVYKNRSIELVQQQNVQLSLTEATEKAKQEFEKAGKDFLVETIKLGKLLRPNHLWGYYLFPDCYNHHYKKPGYNGSCFNVEIKRNDDLSWLWNESTALYPSIYLNTQQSPVAATLYVRNRVREAIRVSKIPDAKSPLPVFAYTRIVFTDQVLKFLSQDELVYTFGETVALGASGIVIWGTLSIMRSMKSCLLLDNYMETILNPYIINVTLAAKMCSQVLCQEQGVCIRKNWNSSDYLHLNPDNFAIQLEKGGKFTVRGKPTLEDLEQFSEKFYCSCYSTLSCKEKADVKDTDAVDVCIADGVCIDAFLKPPMETEEP
modifications: HuPH20 precursor 1-478; Mature HuPH20 36-478
B5: SPAM1-PMET: C-terminally truncated human PH20, precursor 475 aa (SEQ ID NO:25), mature 440 aa (SEQ ID NO:77) (protein, listed as Homo sapiens)
chain 1: MGVLKFKHIFFRSFVKSSGVSQIVFTFLLIPCCLTLNFRAPPVIPNVPFLWAWNAPSEFCLGKFDEPLDMSLFSFIGSPRINATGQGVTIFYVDRLGYYPYIDSITGVTVNGGIPQKISLQDHLDKAKKDITFYMPVDNLGMAVIDWEEWRPTWARNWKPKDVYKNRSIELVQQQNVQLSLTEATEKAKQEFEKAGKDFLVETIKLGKLLRPNHLWGYYLFPDCYNHHYKKPGYNGSCFNVEIKRNDDLSWLWNESTALYPSIYLNTQQSPVAATLYVRNRVREAIRVSKIPDAKSPLPVFAYTRIVFTDQVLKFLSQDELVYTFGETVALGASGIVIWGTLSIMRSMKSCLLLDNYMETILNPYIINVTLAAKMCSQVLCQEQGVCIRKNWNSSDYLHLNPDNFAIQLEKGGKFTVRGKPTLEDLEQFSEKFYCSCYSTLSCKEKADVKDTDAVDVCIADGVCIDAFLKPPMET
chain 2: LNFRAPPVIPNVPFLWAWNAPSEFCLGKFDEPLDMSLFSFIGSPRINATGQGVTIFYVDRLGYYPYIDSITGVTVNGGIPQKISLQDHLDKAKKDITFYMPVDNLGMAVIDWEEWRPTWARNWKPKDVYKNRSIELVQQQNVQLSLTEATEKAKQEFEKAGKDFLVETIKLGKLLRPNHLWGYYLFPDCYNHHYKKPGYNGSCFNVEIKRNDDLSWLWNESTALYPSIYLNTQQSPVAATLYVRNRVREAIRVSKIPDAKSPLPVFAYTRIVFTDQVLKFLSQDELVYTFGETVALGASGIVIWGTLSIMRSMKSCLLLDNYMETILNPYIINVTLAAKMCSQVLCQEQGVCIRKNWNSSDYLHLNPDNFAIQLEKGGKFTVRGKPTLEDLEQFSEKFYCSCYSTLSCKEKADVKDTDAVDVCIADGVCIDAFLKPPMET
modifications: HuPH20 precursor 1-475; Mature HuPH20 36-475

Tested on: CHO-S cells
Experiment: Western blot analysis of PH20 expression in media and cells after transient expression
Type: cell-based, Chinese Hamster
Conditions: band at approximately 66 kDa
Method in brief: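 CHO-S cells were transiently transfected with mutant PH20-HZ24 plasmids using GeneJuice and expressed for 48-72 h at 37 °C, 5% CO2. Media and cells were harvested separately, with PI-PLC treatment used to release GPI-anchored protein. Non-reduced samples were blotted with rabbit anti-PH20 (0.5 μg/mL), and a band near 66 kDa was scored as PH20.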

| Molecule | Protein Expression |
| --- | --- |
| B1 | YES |
| B2 | YES |
| B3 | YES |
| B4 | YES |
| B5 | YES |
